Library compounds against nucleic acid targets

From ROBIN, a set of small-molecule microarray screens (doi:10.1002/anie.202211358).

Targets, with sequences 5′ to 3′:
T1: SAM-II riboswitch RNA pseudoknot, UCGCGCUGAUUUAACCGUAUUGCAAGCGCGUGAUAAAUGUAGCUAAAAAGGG. About 21,000 compounds screened, about 200 hits.
T2: TPP riboswitch RNA three-way junction, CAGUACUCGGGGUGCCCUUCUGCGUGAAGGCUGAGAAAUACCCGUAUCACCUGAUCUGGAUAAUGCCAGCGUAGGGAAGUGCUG. About 24,000 compounds screened, about 160 hits.
T3: PreQ1 riboswitch RNA pseudoknot, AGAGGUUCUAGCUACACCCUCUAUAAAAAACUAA. From B. subtilis. About 24,000 compounds screened, about 170 hits.

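Each compound is printed as two spots on a slide made to bind it covalently, so it has no test concentration; the read-out is fluorescence of the bound, labelled oligonucleotide. The data file lists only calls. An earlier report of the laboratory on the PreQ1, TPP and SAM-II riboswitches (doi:10.1038/s41467-019-09493-3) used 1 µM RNA for 2 h and required a mean Z-score above 3 (spot signal-to-noise against the whole library), a score well above that on a control array, and duplicate spots agreeing (coefficient of variation under 100); it then also set aside compounds that hit other targets, which this list keeps. The cut-offs behind this list may differ. The calls come from the array alone, and fixing a compound to the slide can hide its binding.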
A compound is marked hit if it was called a hit and none if it was screened but was not.
The compounds are a random part of those screened.
A dash means that no call is listed here.

Compound | T1 | T2 | T3
CN(C)CCCNc1c2c(=O)n(C)c(=O)nc-2n(C)c2ccccc12 | none | none | none
CC(=O)c1nn(-c2ccc(F)cc2)nc1Nc1cccc2cccnc12 | - | none | none
O=C(c1ccc(-c2cccc(F)c2)nc1)N1CC[C@H](CO)[C@@H](O)C1 | none | none | none
O=C(O)CNc1cccc(C(=O)NCCNC(=O)c2cccnc2)c1 | none | none | none
O=C1c2ccccc2C(Nc2cccc(C(F)(F)F)c2)N1c1ccc(Cl)cn1 (centres unmarked) | none | none | none
O=S(=O)(Nc1nc2ccccc2nc1NCc1ccc(Cl)cc1)c1ccccc1 | none | none | none
Cc1ccc2[nH]c(Cn3cnc(-c4ccccc4)c3-c3ccc(CO)o3)nc2c1 | none | none | none
CCCCCC[C@H]1C(=O)O[C@H](C)[C@H](NC(=O)c2cccc(NC=O)c2O)C(=O)O[C@@H](C)[C@@H]1OC(=O)CC(C)C | none | none | none
NC(=O)c1ccc(Oc2ccc(C(N)=O)cc2)cc1 | none | none | none
COc1cccc(Nc2c(S(=O)(=O)c3ccccc3)cnc3ccccc23)c1 | - | none | none
O=C(N[C@H]1CC[C@H](O)CC1)C1CC(=O)N(Cc2ccncc2)C1 (some centres unmarked) | none | none | none
CC1CN(C(=O)c2cnc(-c3ccncc3)nc2)CCN1 (centres unmarked) | none | none | none
COc1ccc(C)cc1Nc1c(-c2ccc(C)c(C)c2)c(=O)c1=O | - | none | none
CCNc1nc(NC(C)C)nc(-c2ccncc2)n1 | none | none | none
CN(Cc1ccco1)C(=O)c1ccc(CNc2c(N3CCCCC3)c(=O)c2=O)cc1 | - | none | none
CC(=O)Nc1sc2c(c1C(c1ccccn1)N1CCN(CCO)CC1)CCCC2 (centres unmarked) | none | none | none
NCCCSc1ccccc1 | none | none | none
C=CCSCC(=O)N1CC[C@H](O)C[C@@H]1C(=O)OC | none | none | none
CN(C)C(=O)NCc1cc2n(n1)CCN(Cc1ccc(CCN)cc1)C2 | none | none | none
Cc1ccc(-c2c(Nc3ccc(Br)c(C)c3)c(=O)c2=O)cc1C | - | none | none
CC(C)(C)c1ccc(C(=O)Nc2ccc(S(N)(=O)=O)cc2)cc1 | none | none | none
O=C(Oc1ccccc1NC1=NS(=O)(=O)c2ccccc21)c1ccccc1Br | none | none | none
COc1ccc(C2C(C#N)=C(N)Oc3ccc4ccccc4c32)cc1OC (centres unmarked) | none | none | none
O=C(OCC(O)COC(=O)c1cccnc1)c1cccnc1 | none | none | none
NC1(C(=O)O)CCOCC1 | none | none | none
CCOC(=O)C1=C(C)OC(N)=C(C#N)C12C(=O)N(C)c1ccc(Br)cc12 (centres unmarked) | none | none | none
Cc1ccccc1SC1CCN(C(=O)CC2COCCN2)CC1 (centres unmarked) | none | none | none
CCOC(=O)CNCCC(=O)c1ccc(OCC(C)C)cc1 | none | none | none
COc1cccc(-c2nccn2CC(O)c2cccnc2)c1OC (centres unmarked) | none | none | none
Cc1ccc2cc(CO)c(N3CCC(C(C)N4CCOCC4)CC3)nc2c1 (centres unmarked) | none | none | none
COc1cccc2c1OC[C@]1(C(=O)O)CN(C(=O)[C@H]3CC[C@@H](O)CC3)C[C@H]21 | none | none | none
Cn1c(=O)c2[nH]c(CNc3ccc(C(=O)O)cc3)nc2n(C)c1=O | none | none | none
Cc1ccc(NS(=O)(=O)c2cc(Br)cnc2N)cc1 | - | none | none
CCCC(O)c1nc2ccccc2n1CCOc1ccccc1Cl (centres unmarked) | - | none | none
CNCCCNC(=O)c1nc2ccccc2c(=O)[nH]1 | none | none | none
CC(C)c1cc(C(F)(F)F)nc(NNc2nc(C(C)C)cc(C(F)(F)F)n2)n1 | none | none | none
Cn1c(CO)cnc1-c1ccccc1 | none | none | none
O=C(NCc1cnn(-c2ccccc2)c1)c1cn(CCC2CCCCN2)nn1 (centres unmarked) | none | none | none
CCC(O)Cn1nc(-c2ccc(C(N)=O)cc2)nc1Cc1c(C)n[nH]c1C (centres unmarked) | none | none | none
O=C(c1cnc(Nc2ccccc2)nc1)N(CCO)Cc1nccs1 | none | none | none
O=C1CSCc2nc3ccccc3n21 | none | none | none
CCCC(=O)N1CCN(c2ccc(N)cc2Cl)CC1 | none | none | none
CCCCOC(=O)c1ccc(Nc2nc3ccccc3c3nnc(C)n23)cc1 | - | none | none
NC(=O)CN1CC2(CCC1=O)CCN(CC(O)C(F)(F)F)CC2 (centres unmarked) | none | none | none
Cc1ccc(Cn2c(C(=O)O)c(CNCCc3ccco3)c3ccc(C)cc32)cc1 | - | none | none
Cc1cc(NCCN(C)C)n2nc(-c3ccccc3)c(C)c2n1 | - | none | none
Cc1cc(N2CCN(S(=O)(=O)c3ccc(F)cc3F)CC2)nc(NC2CCCCC2)n1 | - | none | none
Oc1ccc(-c2cccc3c2CCNC3)cc1F | none | none | none
Cc1nn2c(NCCCN3CCOCC3)cc(-c3ccccc3)nc2c1-c1ccccc1 | - | none | none
COc1ccc(C2C(C(C)=O)=C(O)C(=O)N2CC(C)O)cc1 (centres unmarked) | none | none | none
Cc1ccccc1CNCCc1c[nH]c2ccccc12 | none | none | none
Cc1cc(CC(C)n2ccnc2-c2cc3n(n2)CCCNC3)[nH]n1 (centres unmarked) | none | none | none
O=C(c1ccc(Cn2ccnc2)o1)N1CCC2(CCCN(CCO)C2=O)C1 (centres unmarked) | none | none | none
CN(C(=O)c1ccncc1)c1ccccc1 | none | none | none
FC(F)(F)c1ccnc(NCc2cc3n(n2)CCNC3)n1 | none | none | none
CCCOc1ccc(Cn2c(CO)nc3ccccc32)cc1 | none | none | none
OCc1cc(-c2ccccc2OCCn2ccnc2)ccc1F | none | none | none
NCCCN1CCOCC1 | none | none | none
OCCN1CCN(CCOc2cccc(Cl)c2)CC1 | none | none | none
OCCn1c(COc2ccc(Cl)cc2)nc2ccccc21 | none | none | none

Some entries from above, unchanged:

| Compound | T1 | T2 | T3 |
|---|---|---|---|
| `O=C(N[C@H]1CC[C@H](O)CC1)C1CC(=O)N(Cc2ccncc2)C1` (some centres unmarked) | none | none | none |
| `O=C(c1cnc(Nc2ccccc2)nc1)N(CCO)Cc1nccs1` | none | none | none |
| `COc1cccc(Nc2c(S(=O)(=O)c3ccccc3)cnc3ccccc23)c1` | - | none | none |
| `CCCC(=O)N1CCN(c2ccc(N)cc2Cl)CC1` | none | none | none |
| `O=S(=O)(Nc1nc2ccccc2nc1NCc1ccc(Cl)cc1)c1ccccc1` | none | none | none |
| `NCCCN1CCOCC1` | none | none | none |